Laboratory results from paper PMC3715411.
No constants are given. Whether binding was seen depends on the method and setting. In cells and extracts the contact can be indirect. Where a sequence is shown, tags or fusion partners need not be part of it.

Protein sequences, listed by entry. Tags and fused reporters are not part of them.
UniProt P60766: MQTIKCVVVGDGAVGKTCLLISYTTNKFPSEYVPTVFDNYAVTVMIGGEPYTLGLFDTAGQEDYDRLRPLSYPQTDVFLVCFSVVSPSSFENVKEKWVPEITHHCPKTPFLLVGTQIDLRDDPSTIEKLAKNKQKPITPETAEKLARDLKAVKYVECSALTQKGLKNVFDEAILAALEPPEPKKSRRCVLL

Molecular target: T1, Mycobacterium tuberculosis nucleoside diphosphate kinase (Ndk), recombinant, C-terminal 6xHis, on latex beads (Mycobacterium tuberculosis) (UniProt P9WJH7)
T1 sequence: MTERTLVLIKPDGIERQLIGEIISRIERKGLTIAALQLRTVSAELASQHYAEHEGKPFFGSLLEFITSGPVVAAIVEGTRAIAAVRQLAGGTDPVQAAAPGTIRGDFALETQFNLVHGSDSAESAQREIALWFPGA
Assay: co-IP; only the target purified

## Cdc42 GTPase, native, of RAW 264.7 macrophages (from UniProt P60766 1-191)
  binding: no binding
